PubChem BioAssay AID686938, Drosophila RNAi Screening Center – 2013

Purpose: 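Knock-downs reducing store-operated calcium influx in Drosophila cells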 (primary screen)
System: Drosophila S2R+ cells
Reagent: long dsRNA against Drosophila genes, about 0.25 µg dsRNA per well, roughly 10,000 cells
Duration: 5 days of knock-down before the calcium assay
Challenge: thapsigargin (SERCA pump blocker) to empty calcium stores; entry signal taken 4 min after adding it
Measured: 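Per-well fluo-4 fluorescence in two replicates, unnormalised, measured in resting cells and 4 min after store depletion by the SERCA blocker thapsigargin; ratio of the two present in few wells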
Reading the numbers: calcium entry signal: higher = stronger calcium signal after store depletion; entry to resting ratio: higher = more calcium entry relative to resting level; resting calcium signal: higher = higher resting calcium signal
Call rule: 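Called when the plate z-score of the entry-to-rest ratio, mean of duplicates, falls below −3; wells with low overall dye signal (Fmax z below −2) or more than five off-targets excluded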
Calls: active = strongly reduced calcium entry; inactive = no strong reduction
The screen tested about 23,000 reagents; this is a random part of those that have a named target and a result. Of all reagents, 75 (0.33%) got an active call. 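Raw plate signals without normalisation; calls rest on plate z-scores that were not deposited; ratio present for only 364 wells.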 Unmarked entries are inactive. Reagents against one gene are numbered here. Not given: the dose of the treatment.

gene knocked down,reagent no.,"calcium entry signal, replicate 1 (fluorescence units)","calcium entry signal, replicate 2 (fluorescence units)",entry to resting ratio,"resting calcium signal, replicate 1 (fluorescence units)","resting calcium signal, replicate 2 (fluorescence units)"
Tig,1,2.20e7,2.01e7,,1.23e7,1.03e7
CG9135,1,4.32e7,,,2.52e7,
CG7049,1,4.56e7,3.87e7,,2.20e7,1.97e7
Prat,1,2.21e7,3.00e7,,1.05e7,1.40e7
Lcp65Ae,1,2.62e7,3.39e7,,1.15e7,1.26e7
CG14115,1,2.85e7,4.21e7,,1.45e7,1.83e7
RPA2,1,2.48e7,,,1.56e7,
CG4297,1,2.42e7,2.60e7,,1.18e7,1.17e7
Incenp,1,4.16e7,,,2.05e7,
Incenp,2,2.97e7,5.27e7,,1.82e7,3.32e7
CG12655,1,4.79e7,5.15e7,,2.43e7,2.53e7
Rat1,1,2.96e7,,,1.79e7,
CG3909,1,1.87e7,2.39e7,,1.15e7,1.31e7
Hmgs,1,5.35e7,4.45e7,,2.21e7,2.12e7
pros,1,2.24e7,2.79e7,,1.11e7,1.25e7
pros,2,2.34e7,2.89e7,,1.06e7,1.40e7
pros,3,3.76e7,3.43e7,,2.22e7,1.67e7
CG14811,1,3.63e7,5.36e7,2,1.81e7,2.21e7
CG5180,1,3.26e7,4.12e7,,4.28e7,1.71e7
LanB2,1,5.64e7,4.27e7,,3.52e7,1.77e7
CG12998,1,3.75e7,3.06e7,,1.87e7,1.39e7
Muc96D,1,2.64e7,5.16e7,,1.36e7,2.56e7
Muc96D,2,2.69e7,4.17e7,,1.42e7,1.77e7
Muc96D,3,3.74e7,4.81e7,,1.86e7,2.25e7

Copied from the list.
Under “calcium entry signal, replicate 2 (fluorescence units)”, CG5180 reads 4.12e7
Entry for CG12655 in “calcium entry signal, replicate 2 (fluorescence units)”: 5.15e7
Under “resting calcium signal, replicate 1 (fluorescence units)”, Lcp65Ae shows 1.15e7
